According to PubChem BioAssay AID504834 (National Center for Advancing Translational Sciences (NCATS), 2011):
Screen size: about 320,000 compounds; about 22,000 (6.9%) were called active. This list was built around the results that the source calls inconclusive (neither active nor inactive); the mix of calls is not that of the screen. Calls come from the whole dose curve; as a rule, active = well fitted inhibition curve with a large enough effect; inconclusive = small, poorly fitted or top-dose-only effect, or another doubt; inactive = no such curve, though single readings can be large or run the other way. Where the call is inconclusive, the potency comes from a doubtful curve fit.

Experiment: Primary qHTS for delayed death inhibitors of the malarial parasite plastid, 96 hour incubation
Details: P. falciparum luciferase reporter growth; series mostly up to 28.7 µM; activity change, negative = inhibition: at the top concentration
How it was run: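 P. falciparum expressing integrated firefly luciferase grown in erythrocytes (2% hematocrit, 0.05% parasitemia final) with compounds for 96 hours at 37 C, 5% CO2. Growth inhibition read as loss of luminescence after adding luciferase detection reagent.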
% is set by controls: 0 for no effect and ±100 for the full control effect; potency is the fitted concentration of half-maximal effect.

Compound | Potency | activity change, negative = inhibition
CCc1ccccc1NC(=O)C(C)n1nc([N+](=O)[O-])c(Br)c1C (centres undefined) | inconclusive: 18.5 µM [inhibitor, single point] | 
CC1Cc2cc(S(=O)(=O)N3CCC(C(=O)N(C)Cc4ccco4)CC3)ccc2N1C(=O)C1CCC1 (centres undefined) | inconclusive: 5.86 µM [inhibitor, partial curve, poor fit] | 
CCCn1c2ccccc2c2nnc(SCC(=O)Nc3cc(C)on3)nc21 | inconclusive: 18.5 µM [inhibitor, single point] | 
O=[N+]([O-])c1ccc(N2CCN(c3ccc(O)cc3)CC2)cn1 | inconclusive: 10.4 µM [inhibitor, partial curve, poor fit] | 
CCc1ccccc1NC(=O)CN(C)C(=O)CSc1nn(-c2ccccc2)c(=S)s1 | inconclusive: 10.4 µM [inhibitor, single point] | 
Cc1cccc(C)c1N=C1NN=C(c2ccccc2F)CS1 | inconclusive: 18.5 µM [inhibitor, single point] | 
C=CC(=O)N(CCC)C(c1ccccc1)c1ccccc1OC (centres undefined) | inconclusive: 13.1 µM [inhibitor, single point] | 
Cc1cc(C)c(NS(=O)(=O)c2ccc3c(c2)n(C)c(=O)n3C)c(C)c1 | inconclusive: 13.1 µM [inhibitor, single point] | 
CCN(CC)CCOc1cccc(C(C)C)c1 |  | inactive: -7.5%
CCc1ccc(-c2csc(-c3c[nH]c4ccccc34)n2)cc1 | inconclusive: 13.1 µM [inhibitor, partial curve] | 
COc1ccc(CCNC(=O)c2nnn(CC(=O)Nc3cccc(F)c3)c2N)cc1OC |  | inactive: 1.58%
O=C(Nc1nnc(-c2ccco2)o1)c1ccc(Cl)s1 | inconclusive: 10.4 µM [inhibitor, single point] | 
COc1cc(SC)ccc1C(=O)NCCOc1c(C)cc(C)cc1C | active: 4.65 µM | 
O=C(O)C1C2CCC(C2)C1C(=O)Nc1cccc([N+](=O)[O-])c1 (centres undefined) | inconclusive: 11.7 µM [inhibitor, partial curve] | 
COc1ccc(-c2nc(CCNC(=O)c3cccs3)cs2)cc1 | inconclusive: 11.7 µM [inhibitor, partial curve] | 
COC(=O)c1c(-c2ccccc2)csc1NC(=O)c1ccco1 |  | inactive: -6.44%
CCN(CC)S(=O)(=O)c1ccc(N2CCOCC2)c(NC(=O)COc2ccccc2)c1 | inconclusive: 18.5 µM [inhibitor, single point] | 
COc1cc(OC)c(C(=O)NC2CCCCCC2)cc1OC | inconclusive: 0.262 µM [inhibitor, full curve] | 
O=C(c1ccco1)N1CCN(C(=O)c2ccccc2OC(=O)C23CC4CC(CC(C4)C2)C3)CC1 | inconclusive: 11.7 µM [inhibitor, single point] | 
Cc1csc(NC(=O)/C=C/c2ccc3c(c2)OCO3)n1 |  | inactive: 23.1%
O=C(NCCc1ccccc1F)C1CCC(=O)N(CCCN2CCCC2=O)C1 (centres undefined) | inconclusive: 20.8 µM [inhibitor, single point] | 
FC(F)(F)c1cc(CCN2C(=S)NC[C@@H]2CC2CCCCC2)cc(C(F)(F)F)c1 | inconclusive: 9.28 µM [inhibitor, partial curve, poor fit] | 

Compound | Potency | activity change, negative = inhibition
O=C(c1ccc(S(=O)(=O)Cc2ccccc2Cl)c([N+](=O)[O-])c1)N1CCN(c2ccccn2)CC1 | active: 13.1 µM | 
O=C(CNC(=O)c1ccco1)N/N=C/c1c[nH]c2ccccc12 |  | inactive: 98.7%
CC(=O)Nc1cccc(NC(=O)Cc2nc(-c3ccccc3)sc2-c2ccc(C)cc2)c1 | inconclusive: 18.5 µM [inhibitor, single point] | 
COCCNC(=O)COC(=O)C1=Cc2ccccc2OC1 | inconclusive: 13.1 µM [inhibitor, single point] | 
CC(C)(CC(=O)O)CC(=O)Nc1ccc(Cl)c(Cl)c1 |  | inactive: 81%
O=C(NCc1ccccc1)c1onc(CSc2ccc(Cl)cc2)c1C(=O)NCC1CC1 | inconclusive: 18.5 µM [inhibitor, single point] | 
Oc1ccc(/C=N/Nc2cc(N3CCCC3)nc(N3CCCC3)n2)cc1 | active: 2.08 µM | 
Cc1occc1C(=O)NNC(=S)NCC(C)C | inconclusive: 3.29 µM [inhibitor, single point] | 
COc1ccccc1OCCCCOc1ccccc1F |  | inactive: 34.1%
CCOC(=O)N1CCC(N2Cc3cccc(C(=O)NCc4ccccc4OC)c3C2=O)CC1 |  | inactive: 0.944%
O=C1CC(SC(=Nc2ccccc2)Nc2ccccc2)C(=O)N1c1ccc(Cl)cc1 (centres undefined) | inconclusive: 18.5 µM [inhibitor, partial curve, poor fit] | 
COc1ccccc1Nc1ncnc2ccc(C)cc12 |  | inactive: 10.3%
CC#CC(=O)NCC1(N(C)Cc2ccccc2)Cc2ccccc2C1 | active: 7.38 µM | 
CN(C)c1ccc(NC(=O)Nc2cccc3ccccc23)cc1 | inconclusive: 18.5 µM [inhibitor, single point] | 
CCCCCc1nnc(NC(=O)c2ccc3nc[nH]c3c2)s1 | inconclusive: 18.5 µM [inhibitor, single point] | 
CCc1ccc(OCCNC(=O)c2ccccc2SCc2ccc(F)cc2)cc1 | inconclusive: 0.208 µM [inhibitor, partial curve, poor fit] | 
Cc1cccc(N=C2NC(=O)/C(=C/c3cccs3)S2)c1 |  | inactive: -16.7%
COc1ccccc1NS(=O)(=O)c1ccc2oc(SCC(=O)N3CCNC3=O)nc2c1 | inconclusive: 10.4 µM [inhibitor, partial curve] | 
O=S(=O)(c1ccccc1)N1CCN(c2cccc(Cl)c2)CC1 | inconclusive: 18.5 µM [inhibitor, single point] | 
O=C(CN1C(=O)C2C3C=CC(C3)C2C1=O)Nc1ccc(S(=O)(=O)N2CCCCC2)cc1 (centres undefined) | inconclusive: 13.1 µM [inhibitor, single point] | 
Cc1cccc(-n2c(-c3ccccc3)c[nH]c2=S)c1C | inconclusive: 13.1 µM [inhibitor, single point] | 
O=S(=O)(NCc1c(Cl)cccc1Oc1ccccc1)c1ccccc1 | inconclusive: 14.7 µM [inhibitor, partial curve, poor fit] | 

Entries of single compounds as entered above:
`C=CC(=O)N(CCC)C(c1ccccc1)c1ccccc1OC` (centres undefined) in the list: Potency: inconclusive: 13.1 µM [inhibitor, single point]
`CCOC(=O)N1CCC(N2Cc3cccc(C(=O)NCc4ccccc4OC)c3C2=O)CC1` in the list: activity change, negative = inhibition: inactive: 0.944%
`CC#CC(=O)NCC1(N(C)Cc2ccccc2)Cc2ccccc2C1` in the list: Potency: active: 7.38 µM
`CCCCCc1nnc(NC(=O)c2ccc3nc[nH]c3c2)s1` in the list: Potency: inconclusive: 18.5 µM [inhibitor, single point]
